Measurements from PMC5327418.
These are yes or no findings as the source states them, for the method shown. In cells and extracts the contact can be indirect. A yes stands for co-enrichment or nearness to the bait. Other partners may have been found.

Sequences of proteins named here, by UniProt entry; tags and fusion partners are left off.
UniProt P32569: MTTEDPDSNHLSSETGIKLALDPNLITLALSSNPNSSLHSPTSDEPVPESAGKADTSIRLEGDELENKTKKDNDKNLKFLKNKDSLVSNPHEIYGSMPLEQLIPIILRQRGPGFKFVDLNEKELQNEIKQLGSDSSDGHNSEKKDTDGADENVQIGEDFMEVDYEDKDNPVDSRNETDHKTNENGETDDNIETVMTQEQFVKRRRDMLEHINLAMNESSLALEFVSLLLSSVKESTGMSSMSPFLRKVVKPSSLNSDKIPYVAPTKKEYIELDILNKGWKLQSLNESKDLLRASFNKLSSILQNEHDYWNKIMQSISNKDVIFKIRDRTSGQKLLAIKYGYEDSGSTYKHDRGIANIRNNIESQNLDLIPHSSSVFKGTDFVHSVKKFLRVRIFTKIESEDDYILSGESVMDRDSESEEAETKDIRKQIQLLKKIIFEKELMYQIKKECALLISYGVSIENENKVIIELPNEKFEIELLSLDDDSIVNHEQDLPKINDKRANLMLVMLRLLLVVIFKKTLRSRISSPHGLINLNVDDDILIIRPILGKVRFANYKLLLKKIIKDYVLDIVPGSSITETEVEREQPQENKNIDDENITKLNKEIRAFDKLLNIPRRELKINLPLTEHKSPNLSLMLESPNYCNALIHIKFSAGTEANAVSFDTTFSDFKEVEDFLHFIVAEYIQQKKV

Target: Med17-HA (S. cerevisiae (endogenous in S288c)) (UniProt P32569)
Test: affinity purification with mass spectrometry; CoIP of Med17-HA on anti-HA magnetic beads from cryoground yeast lysate, 2 h at 4 °C; 20 mM HEPES pH 7.5, 300 mM KOAc, 10% glycerol, 0.01% NP-40, 6 mM MnSO4, 1 mM DTT, Cyanase nuclease; parallel control CoIP from 15N-labelled wild type cells, mixing after purification (MAP); GeLC-MS/MS, three biological replicates

B1: Tel2 (protein, UniProt P53038 1-688)
chain: MVLETLKQGLDSSQIHEALIQLDSYPREPVDLDASMVLIKFVIPVYPSLPERSKVILRRLASKSFTFLCQIVTFSRTISGRDGLQEIRIYQEILEDIISFEPGCLTFYLKASTTSKADRDSIKALFFGSKLFNVLANRIDMAKYLGYLRLQWKFLLESNETDPPGFLGEWLVSSFLLNPVLAADMLLGELFLLKESYFFSFQKIISASSLIDQKRLIAKFLLPYIQVIVTLENLNDVRKILRRFDLDKIISLSVLFEIQSLPLKEVIVRLMSNHSSTKFVSALVSKFADFTDEEVDTKTCELLVLFAVHNLNHSQREEIAHDERFLNGVTKHLGSNEREARERAMFIAKLLSGGHLKYESDFKINIPNVKFESNSDDKIIDFQSLKNPSICNTQTDVGKDKITEVSGHVQSLTLDCSDSDDEDENDEREIVKRIVFLKDLMKEYEKTGESRKAPLIPLLKQTVKLIRQKADFQLEVGYYAQGILSSIVCLNNEFDEPLFEQWRINALTSILVVLPEKVNGAINILFNSELSLQQRMSLLSALGLSARELRGLDDPTIVKPKFDFPTNRLPWDDQSHHNSRLVEVQESTSMIKKTKTVWKSRKLGKDREKGTQNRFRKYAGLFFYPLAHGWLNGIDVGTYNQLFKSHYLTTLRIIYSCANPVHDFESMTELMNHIISSAIEEGISLNKG
In the case of B1, the binding is reported as “binds”.

B2: Asg1 (protein, UniProt P40467 1-964)
chain: MPEQAQQGEQSVKRRRVTRACDECRKKKVKCDGQQPCIHCTVYSYECTYKKPTKRTQNSGNSGVLTLGNVTTGPSSSTVVAAAASNPNKLLSNIKTERAILPGASTIPASNNPSKPRKYKTKSTRLQSKIDRYKQIFDEVFPQLPDIDNLDIPVFLQIFHNFKRDSQSFLDDTVKEYTLIVNDSSSPIQPVLSSNSKNSTPDEFLPNMKSDSNSASSNREQDSVDTYSNIPVGREIKIILPPKAIALQFVKSTWEHCCVLLRFYHRPSFIRQLDELYETDPNNYTSKQMQFLPLCYAAIAVGALFSKSIVSNDSSREKFLQDEGYKYFIAARKLIDITNARDLNSIQAILMLIIFLQCSARLSTCYTYIGVAMRSALRAGFHRKLSPNSGFSPIEIEMRKRLFYTIYKLDVYINAMLGLPRSISPDDFDQTLPLDLSDENITEVAYLPENQHSVLSSTGISNEHTKLFLILNEIISELYPIKKTSNIISHETVTSLELKLRNWLDSLPKELIPNAENIDPEYERANRLLHLSFLHVQIILYRPFIHYLSRNMNAENVDPLCYRRARNSIAVARTVIKLAKEMVSNNLLTGSYWYACYTIFYSVAGLLFYIHEAQLPDKDSAREYYDILKDAETGRSVLIQLKDSSMAASRTYNLLNQIFEKLNSKTIQLTALHSSPSNESAFLVTNNSSALKPHLGDSLQPPVFFSSQDTKNSFSLAKSEESTNDYAMANYLNNTPISENPLNEAQQQDQVSQGTTNMSNERDPNNFLSIDIRLDNNGQSNILDATDDVFIRNDGDIPTNSAFDFSSSKSNASNNSNPDTINNNYNNVSGKNNNNNNITNNSNNNHNNNNNDNNNNNNNNNNNNNNNNNSGNSSNNNNNNNNNKNNNDFGIKIDNNSPSYEGFPQLQIPLSQDNLNIEDKEEMSPNIEIKNEQNMTDSNDILGVFDQLDAQLFGKYLPLNYPSE
In the case of B2, the binding is reported as “binds”.

B3: Fzf1 (protein, UniProt P32805 1-299)
chain: MTDIGRTKSRNYKCSFDGCEKVYNRPSLLQQHQNSHTNQKPYHCDEPGCGKKFIRPCHLRVHKWTHSQIKPKACTLCQKRFVTNQQLRRHLNSHERKSKLASRIDRKHEGVNANVKAELNGKEGGFDPKLPSGSPMCGEEFSQGHLPGYDDMQVLQCPYKSCQKVTSFNDDLINHMLQHHIASKLVVPSGDPSLKESLPTSEKSSSTDTTSIPQLSFSTTGTSSSESVDSTTAQTPTDPESYWSDNRCKHSDCQELSPFASVFDLIDHYDHTHAFIPETLVKYSYIHLYKPSVWDLFEY
In the case of B3, the binding is reported as “binds”.

B4: Met4 (protein, UniProt P32389 1-672)
chain: MKQEQSHEGDSYSTEFINLFGKDTATHPSSNNGANNNGMGSTNSLDQFVATASSSSSLVTSSENRRPLIGDVTNRGNTNLYDHAVTPEILLEQLAYVDNFIPSLDNEFSNVDWNVNTTHNNANNNGADTFSSINANPFDLDEQLAIELSAFADDSFIFPDEDKPSNNNNNSNNGNDDHSNHDVLHEDPSTNNRQRNPHFLTQRRNTFLTSQYDQSKSRFSSKNKRNGNNGETNNFGDNMQNNHPFEPNFMGSPSQFPADATNMTSIDHGGFTNVDITSTENNTTGDNGVDALSNLLHRTTHTPNRSSPLSNVTSAQNSSSQQRKHSESKVDSNSDNNSSNKAPNITVPDYSIIPTSVLVTLLPRVNVPNGAYNSLISAGFDNDQIDAIAAIMAYHHQKKIRENNSNNNKNINTNDSQEAPILKNINELLSVLIPPSPAETRGPTTLSTSPSFNEHGVVAEASFLSSILELGIKHPKSNNIHNQRQPSRNDHKISRESDGNNGNDNVHHNNAVIKSSTTRGDEIAKIRSEPTLNASSSDHKENSLKRSHSGDLKNKKVPVDRKYSDNEDDEYDDADLHGFEKKQLIKKELGDDDEDLLIQSKKSHQKKKLKEKELESSIHELTEIAASLQKRIHTLETENKLLKNLVLSSGETEGIKKAESLKKQIFEKVQKE
For B4, the binding was “binds”.

B5: Met32 (protein, UniProt Q12041 1-191)
chain: MEDQDAAFIKQATEAIVDVSLNIDNIDPIIKELLERVRNRQNRLQNKKPALIPAENGVDINSQGGNIKVKKENALPKPPKSSKSKPQDRRNSTGEKRFKCAKCSLEFSRSSDLRRHEKTHFAILPNICPQCGKGFARKDALKRHYDTLTCRRNRTKLLTAGGEGINELLKKVKQSNIVHRQDNNHNGSSNG
In the case of B5, the binding is reported as “binds”.

B6: Gat1 (protein, UniProt P43574 1-510)
chain: MHVFFPLLFRPSPVLFIACAYIYIDIYIHCTRCTVVNITMSTNRVPNLDPDLNLNKEIWDLYSSAQKILPDSNRILNLSWRLHNRTSFHRINRIMQHSNSIMDFSASPFASGVNAAGPGNNDLDDTDTDNQQFFLSDMNLNGSSVFENVFDDDDDDDDVETHSIVHSDLLNDMDSASQRASHNASGFPNFLDTSCSSSFDDHFIFTNNLPFLNNNSINNNHSHNSSHNNNSPSIANNTNANTNTNTSASTNTNSPLLRRNPSPSIVKPGSRRNSSVRKKKPALKKIKSSTSVQSSATPPSNTSSNPDIKCSNCTTSTTPLWRKDPKGLPLCNACGLFLKLHGVTRPLSLKTDIIKKRQRSSTKINNNITPPPSSSLNPGAAGKKKNYTASVAASKRKNSLNIVAPLKSQDIPIPKIASPSIPQYLRSNTRHHLSSSVPIEAETFSSFRPDMNMTMNMNLHNASTSSFNNEAFWKPLDSAIDHHSGDTNPNSNMNTTPNGNLSLDWLNLNL
In the case of B6, the binding is reported as “binds”.

B7: Tye7 (protein, UniProt P33122 1-291)
chain: MNSILDRNVRSSETTLIKPESEFDNWLSDENDGASHINVNKDSSSVLSASSSTWFEPLENIISSASSSSIGSPIEDQFISSNNEESALFPTDQFFSNPSSYSHSPEVSSSIKREEDDNALSLADFEPASLQLMPNMINTDNNDDSTPLKNEIELNDSFIKTNLDAKETKKRAPRKRLTPFQKQAHNKIEKRYRININTKIARLQQIIPWVASEQTAFEVGDSVKKQDEDGAETAATTPLPSAAATSTKLNKSMILEKAVDYILYLQNNERLYEMEVQRLKSEIDTLKQDQK
With B7 the binding was “binds”.

B8: Haa1 (protein, UniProt Q12753 1-694)
chain: MVLINGIKYACERCIRGHRVTTCNHTDQPLMMIKPKGRPSTTCDYCKQLRKNKNANPEGVCTCGRLEKKKLAQKAKEEARAKAKEKQRKQCTCGTDEVCKYHAQKRHLRKSPSSSQKKGRSISRSQPMFERVLSSTSLDSNMLSGHGALSDTSSILTSTFLDSEPGVGKISKDYHHVPSLASISSLQSSQSLDQNFSIPQSPPLSSMSFNFLTGNINETNQNHSNHQHSKSGNNWQDSSVSLPAKADSRLNMMDKNNSVGLDLLGHSKRISPISNSRVGEVSVPLEEYIPSDIDGVGRVTDKSSLVYDWPFDESIERNFSTTATAATGESKFDINDNCNRINSKSYSKTNSMNGNGMNNSNNNNINSNGNDKNNNNSSRQEHQGNGLFDMFTDSSSISTLSRANLLLQEKIGSQENSVKQENYSKNPQLRHQLTSRSRSFIHHPANEYLKNTFGNSHSNDIGKGVEVLSLTPSFMDIPEKERETERSPSSNYITDRPFTRKPRSSSIDVNHRYPPMAPTTVATSPGALNNAVASNLDDQLSLTSLNSQPSSIANMMMDPSNLAEQSSIHSVPQSINSPRMPKTGSRQDKNIHTKKEERNPLNNIHDLSQLENVPDEMNQMFSPPLKSMNRPDAIRENSSSSNFIIQGNSMISTPSGRNDLPDTSPMSSIQTASPPSQLLTDQGFADLDNFMSSL
In the case of B8, the binding is reported as “binds”.

B9: Cup2 (protein, UniProt P15315 1-225)
chain: MVVINGVKYACETCIRGHRAAQCTHTDGPLQMIRRKGRPSTTCGHCKELRRTKNFNPSGGCMCASARRPAVGSKEDETRCRCDEGEPCKCHTKRKSSRKSKGGSCHRRANDEAAHVNGLGIADLDVLLGLNGRSSDVDMTTTLPSLKPPLQNGEIKADSIDNLDLASLDPLEQSPSISMEPVSINETGSAYTTTNTALNDIDIPFSINELNELYKQVSSHNSHSQ
For B9, the binding was “binds”.

B10: Bas1 (protein, UniProt P22035 1-811)
chain: MSNISTKDIRKSKPKRGSGFDLLEVTESLGYQTHRKNGRNSWSKDDDNMLRSLVNESAKELGYENGLEDVKTIQQSNHLSKCIAWDVLATRFKHTVRTSKDVRKRWTGSLDPNLKKGKWTQEEDEQLLKAYEEHGPHWLSISMDIPGRTEDQCAKRYIEVLGPGSKGRLREWTLEEDLNLISKVKAYGTKWRKISSEMEFRPSLTCRNRWRKIITMVVRGQASEVITKAIKENKNIDMTDGKLRQHPIADSDIRSDSTPNKEEQLQLSQQNNPSLIKQDILNVKENESSKLPRLKDNDGPILNDSKPQALPPLKEISAPPPIRMTQVGQTHTSGSIRSKVSLPIEGLSQMNKQSPGGISDSPQTSLPPAFNPASLDEHMMNSNSISDSPKHAYSTVKTREPNSSSTQWKFTLKDGQGLSISNGTIDSTKLVKELVDQAKKYSLKISIHQHIHNHYVTSTDHPVSSNTGLSNIGNINGNPLLMDSFPHMGRQLGNGLPGLNSNSDTFNPEYRTSLDNMDSDFLSRTPNYNAFSLEATSHNPADNANELGSQSNRETNSPSVFYPQANTLIPTNSTATNNEIIQGNVSANSMSPNFNGTNGKAPSSTASYTTSGSEMPPDVGPNRIAHFNYLPPTIRPHLGSSDATRGADLNKLLNPSPNSVRSNGSKTKKKEKRKSESSQHHSSSSVTTNKFNHIDQSEISRTTSRSDTPLRDEDGLDFWETLRSLATTNPNPPVEKSAENDGAKPQVVHQGIGSHTEDSSLGSHSGGYDFFNELLDKKADTLHNEAKKTSEHDMTSGGSTDNGSVLPLNPS
For B10, the binding was “binds”.
